We go through four molecules from article PMC5223209, “New insights into the GINS complex explain the controversy between existing structural models” (Scientific Reports, 2017).

Protein sequences, listed by entry. Tags and fused reporters are not part of them.
UniProt Q9BRT9: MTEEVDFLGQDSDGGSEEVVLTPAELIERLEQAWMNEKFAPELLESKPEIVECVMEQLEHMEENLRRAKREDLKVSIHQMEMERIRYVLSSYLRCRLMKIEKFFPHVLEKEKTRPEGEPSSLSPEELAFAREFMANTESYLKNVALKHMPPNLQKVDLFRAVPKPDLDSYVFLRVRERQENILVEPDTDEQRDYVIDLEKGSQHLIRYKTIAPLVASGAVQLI

Results are given in words; binding and its absence hold for the method and conditions named. Some entries that bind do so weakly or less than the wild type. Tags and fused reporters may be left off the sequences shown.

Experiment [1] addresses T1, human Psf3 with a cleavable N-terminal histidine tag (human) (UniProt Q9BRX5).
T1 sequence: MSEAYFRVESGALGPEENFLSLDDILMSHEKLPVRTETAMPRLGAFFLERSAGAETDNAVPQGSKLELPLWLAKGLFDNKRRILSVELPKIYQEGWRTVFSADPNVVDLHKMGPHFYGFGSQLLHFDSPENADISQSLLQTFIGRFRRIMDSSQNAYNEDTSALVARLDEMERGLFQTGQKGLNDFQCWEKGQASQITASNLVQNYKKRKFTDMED
As to the kind of experiment: SEC-MALS; 100 uL of 5 and 10 mg/mL hGINS on a Superdex 200 column coupled with differential refractive index detection; both purified. In general terms: In gel filtration, larger molecules generally elute earlier.

The target in experiment [2] is T1, human Psf3 with a cleavable N-terminal histidine tag (human). As to the kind of experiment: SAXS; Elettra SAXS beamline; full length hGINS at 1-4 mg/ml and hGINS-ΔB at 0.67-5 mg/ml; purified co-expressed complexes; both purified.
Experiment [3] has the same target. As to the kind of experiment: SEC; hGINS subunits co-expressed in E. coli and co-purified by Ni-affinity (His tag on Psf3), heparin and size-exclusion chromatography; subunits co-eluted up to 500 mM NaCl plus 500 mM imidazole, pH 6.0-8.0; tetramer peak fraction run again minutes or days after elution; both purified.

On to human Sld5 (from UniProt Q9BRT9 1-223), for which the binding entry in experiment [1], in experiment [2] and in experiment [3] was “binds” in each case.

B1: human Psf1 (protein, UniProt Q14691 1-196)
chain: MFCEKAMELIRELHRAPEGQLPAFNEDGLRQVLEEMKALYEQNQSDVNEAKSGGRSDLIPTIKFRHCSLLRNRRCTVAYLYDRLLRIRALRWEYGSVLPNALRFHMAAEEMEWFNNYKRSLATYMRSLGGDEGLDITQDMKPPKSLYIEVRCLKDYGEFEVDDGTSVLLKKNSQHFLPRWKCEQLIRQGVLEHILS
As for B1, the binding result in experiment [1], in experiment [2] and in experiment [3] was “binds” each time.

B2: human Psf1 lacking the B domain (Psf1ΔB) (domain or fragment, UniProt Q14691 1-149)
chain: MFCEKAMELIRELHRAPEGQLPAFNEDGLRQVLEEMKALYEQNQSDVNEAKSGGRSDLIPTIKFRHCSLLRNRRCTVAYLYDRLLRIRALRWEYGSVLPNALRFHMAAEEMEWFNNYKRSLATYMRSLGGDEGLDITQDMKPPKSLYIE
Take B2: the binding entry in experiment [2] is “binds”.

B3: human Psf2 (protein, UniProt Q9Y248 1-185)
chain: MDAAEVEFLAEKELVTIIPNFSLDKIYLIGGDLGPFNPGLPVEVPLWLAINLKQRQKCRLLPPEWMDVEKLEKMRDHERKEETFTPMPSPYYMELTKLLLNHASDNIPKADEIRTLVKDMWDTRIAKLRVSADSFVRQQEAHAKLDNLTLMEINTSGTFLTQALNHMYKLRTNLQPLESTQSQDF
Regarding B3, the binding result in experiment [1], in experiment [2] and in experiment [3] was “binds” each time.
